Data reported in US20160369115A1, “POLARIZING PLATE COMPOSITION, POLARIZING PLATE PROTECTIVE FILM, POLARIZER, POLARIZING PLATE, LIQUID CRYSTAL DISPLAY DEVICE, AND COMPOUND USED IN THE LIQUID CRYSTAL DISPLAY DEVICE” (FUJIFILM Corporation, priority 2014, published 2016).

Columns and labels:
[1] = Evaluation of durability of polarizing plate, additive in adhesive layer (Example 3); conditions: for Durability of polarizer: amount of change of orthogonal transmittance (%) 60° C., 95%, 500 hours / Durability of polarizer: amount of change of orthogonal transmittance (%) 60° C., 95%, 1,000 hours / Durability of polarizer: amount of change of orthogonal transmittance (%) 80° C., Dry 500 hours / Durability of polarizer: amount of change of orthogonal transmittance (%) 80° C., Dry, 1,000 hours: 410 nm
[2] = Bleed-out properties in polarizer (haze evaluation); conditions: haze of polarizing plate, additive in polarizer
[3] = Evaluation of durability of polarizing plate, additive in polarizer (Example 2); conditions: 410 nm
[4] = added amount 1.0 per 100 parts by mass of the polyvinyl alcohol resin, film thickness 5 μm
[5] = added amount 10.0 per 100 parts by mass of the polyvinyl alcohol resin, film thickness 5 μm
[6] = added amount 20.0 per 100 parts by mass of the polyvinyl alcohol resin, film thickness 10 μm
[7] = added amount 0.1 per 100 parts by mass of polyvinyl alcohol resin
[8] = added amount 1.0 per 100 parts by mass of polyvinyl alcohol resin
[9] = added amount 10.0 per 100 parts by mass of polyvinyl alcohol resin

SMILES: COC(=O)Oc1c(Cc2ccc(S(=O)(=O)[O-])cc2S(=O)(=O)[O-])c(=O)n(-c2ccccc2)c(=O)n1Cc1ccccc1.[Na+].[Na+] [Example compound B]
- Durability of polarizer: amount of change of degree of polarization (%) 60° C., 95%, 500 hours [1, 4]: A+ (The amount of change of the degree of polarization before and after the elapse of time was less than 0.05%.)
- Durability of polarizer: amount of change of degree of polarization (%) 60° C., 95%, 1,000 hours [1, 4]: A+ (The amount of change of the degree of polarization before and after the elapse of time was less than 1.0%.)
- Durability of polarizer: amount of change of degree of polarization (%) 80° C., Dry, 500 hours [1, 4]: A+ (The amount of change of the degree of polarization before and after the elapse of time was less than 0.05%.)
- Durability of polarizer: amount of change of degree of polarization (%) 80° C., Dry, 1,000 hours [1, 4]: A+ (The amount of change of the degree of polarization before and after the elapse of time was less than 0.1%.)
- Durability of polarizer: amount of change of orthogonal transmittance (%) 60° C., 95%, 500 hours [1, 4]: A+ (The amount of change of the orthogonal transmittance before and after the elapse of time was less than 0.1%.)
- Durability of polarizer: amount of change of orthogonal transmittance (%) 60° C., 95%, 1,000 hours [1, 4]: A+ (The amount of change of the orthogonal transmittance before and after the elapse of time was less than 0.5%.)
- Durability of polarizer: amount of change of orthogonal transmittance (%) 80° C., Dry 500 hours [1, 4]: A+ (The amount of change of the orthogonal transmittance before and after the elapse of time was less than 0.05%.)
- Durability of polarizer: amount of change of orthogonal transmittance (%) 80° C., Dry, 1,000 hours [1, 4]: A+ (The amount of change of the orthogonal transmittance before and after the elapse of time was less than 0.1%.)
- Durability of polarizer: amount of change of degree of polarization (%) 60° C., 95%, 500 hours [1, 5]: A+ (The amount of change of the degree of polarization before and after the elapse of time was less than 0.05%.)
- Durability of polarizer: amount of change of degree of polarization (%) 60° C., 95%, 1,000 hours [1, 5]: A+ (The amount of change of the degree of polarization before and after the elapse of time was less than 1.0%.)
- Durability of polarizer: amount of change of degree of polarization (%) 80° C., Dry, 500 hours [1, 5]: A+ (The amount of change of the degree of polarization before and after the elapse of time was less than 0.05%.)
- Durability of polarizer: amount of change of degree of polarization (%) 80° C., Dry, 1,000 hours [1, 5]: A+ (The amount of change of the degree of polarization before and after the elapse of time was less than 0.1%.)
- Durability of polarizer: amount of change of orthogonal transmittance (%) 60° C., 95%, 500 hours [1, 5]: A+ (The amount of change of the orthogonal transmittance before and after the elapse of time was less than 0.1%.)
- Durability of polarizer: amount of change of orthogonal transmittance (%) 60° C., 95%, 1,000 hours [1, 5]: A+ (The amount of change of the orthogonal transmittance before and after the elapse of time was less than 0.5%.)
- Durability of polarizer: amount of change of orthogonal transmittance (%) 80° C., Dry 500 hours [1, 5]: A+ (The amount of change of the orthogonal transmittance before and after the elapse of time was less than 0.05%.)
- Durability of polarizer: amount of change of orthogonal transmittance (%) 80° C., Dry, 1,000 hours [1, 5]: A+ (The amount of change of the orthogonal transmittance before and after the elapse of time was less than 0.1%.)
- Durability of polarizer: amount of change of degree of polarization (%) 60° C., 95%, 500 hours [1, 6]: A+ (The amount of change of the degree of polarization before and after the elapse of time was less than 0.05%.)
- Durability of polarizer: amount of change of degree of polarization (%) 60° C., 95%, 1,000 hours [1, 6]: A+ (The amount of change of the degree of polarization before and after the elapse of time was less than 1.0%.)
- Durability of polarizer: amount of change of degree of polarization (%) 80° C., Dry, 500 hours [1, 6]: A+ (The amount of change of the degree of polarization before and after the elapse of time was less than 0.05%.)
- Durability of polarizer: amount of change of degree of polarization (%) 80° C., Dry, 1,000 hours [1, 6]: A+ (The amount of change of the degree of polarization before and after the elapse of time was less than 0.1%.)
- Durability of polarizer: amount of change of orthogonal transmittance (%) 60° C., 95%, 500 hours [1, 6]: A+ (The amount of change of the orthogonal transmittance before and after the elapse of time was less than 0.1%.)
- Durability of polarizer: amount of change of orthogonal transmittance (%) 60° C., 95%, 1,000 hours [1, 6]: A+ (The amount of change of the orthogonal transmittance before and after the elapse of time was less than 0.5%.)
- Durability of polarizer: amount of change of orthogonal transmittance (%) 80° C., Dry 500 hours [1, 6]: A+ (The amount of change of the orthogonal transmittance before and after the elapse of time was less than 0.05%.)
- Durability of polarizer: amount of change of orthogonal transmittance (%) 80° C., Dry, 1,000 hours [1, 6]: A+ (The amount of change of the orthogonal transmittance before and after the elapse of time was less than 0.1%.)
- Bleed out [2, 7]: A (The haze was less than 0.3%.)
- Bleed out [2, 8]: A (The haze was less than 0.3%.)
- Bleed out [2, 9]: A (The haze was less than 0.3%.)
- Durability of polarizer: amount of change of degree of polarization (%) 60° C., 95%, 500 hours [3, 7]: A+ (The amount of change of the degree of polarization before and after the elapse of time was less than 0.05%.)
- Durability of polarizer: amount of change of degree of polarization (%) 60° C., 95%, 1,000 hours [3, 7]: A+ (The amount of change of the degree of polarization before and after the elapse of time was less than 1.0%.)
- Durability of polarizer: amount of change of degree of polarization (%) 80° C., Dry, 500 hours [3, 7]: A+ (The amount of change of the degree of polarization before and after the elapse of time was less than 0.05%.)
- Durability of polarizer: amount of change of degree of polarization (%) 80° C., Dry, 1,000 hours [3, 7]: A+ (The amount of change of the degree of polarization before and after the elapse of time was less than 0.1%.)
- Durability of polarizer: amount of change of orthogonal transmittance (%) 60° C., 95%, 500 hours [3, 7]: A+ (The amount of change of the orthogonal transmittance before and after the elapse of time was less than 0.1%.)
- Durability of polarizer: amount of change of orthogonal transmittance (%) 60° C., 95%, 1,000 hours [3, 7]: A+ (The amount of change of the orthogonal transmittance before and after the elapse of time was less than 0.5%.)
- Durability of polarizer: amount of change of orthogonal transmittance (%) 80° C., Dry 500 hours [3, 7]: A+ (The amount of change of the orthogonal transmittance before and after the elapse of time was less than 0.05%.)
- Durability of polarizer: amount of change of orthogonal transmittance (%) 80° C., Dry, 1,000 hours [3, 7]: A+ (The amount of change of the orthogonal transmittance before and after the elapse of time was less than 0.1%.)
- Durability of polarizer: amount of change of degree of polarization (%) 60° C., 95%, 500 hours [3, 8]: A+ (The amount of change of the degree of polarization before and after the elapse of time was less than 0.05%.)
- Durability of polarizer: amount of change of degree of polarization (%) 60° C., 95%, 1,000 hours [3, 8]: A+ (The amount of change of the degree of polarization before and after the elapse of time was less than 1.0%.)
- Durability of polarizer: amount of change of degree of polarization (%) 80° C., Dry, 500 hours [3, 8]: A+ (The amount of change of the degree of polarization before and after the elapse of time was less than 0.05%.)
- Durability of polarizer: amount of change of degree of polarization (%) 80° C., Dry, 1,000 hours [3, 8]: A+ (The amount of change of the degree of polarization before and after the elapse of time was less than 0.1%.)
- Durability of polarizer: amount of change of orthogonal transmittance (%) 60° C., 95%, 500 hours [3, 8]: A+ (The amount of change of the orthogonal transmittance before and after the elapse of time was less than 0.1%.)
- Durability of polarizer: amount of change of orthogonal transmittance (%) 60° C., 95%, 1,000 hours [3, 8]: A+ (The amount of change of the orthogonal transmittance before and after the elapse of time was less than 0.5%.)
- Durability of polarizer: amount of change of orthogonal transmittance (%) 80° C., Dry 500 hours [3, 8]: A+ (The amount of change of the orthogonal transmittance before and after the elapse of time was less than 0.05%.)
- Durability of polarizer: amount of change of orthogonal transmittance (%) 80° C., Dry, 1,000 hours [3, 8]: A+ (The amount of change of the orthogonal transmittance before and after the elapse of time was less than 0.1%.)
- Durability of polarizer: amount of change of degree of polarization (%) 60° C., 95%, 500 hours [3, 9]: A+ (The amount of change of the degree of polarization before and after the elapse of time was less than 0.05%.)
- Durability of polarizer: amount of change of degree of polarization (%) 60° C., 95%, 1,000 hours [3, 9]: A+ (The amount of change of the degree of polarization before and after the elapse of time was less than 1.0%.)
- Durability of polarizer: amount of change of degree of polarization (%) 80° C., Dry, 500 hours [3, 9]: A+ (The amount of change of the degree of polarization before and after the elapse of time was less than 0.05%.)
- Durability of polarizer: amount of change of degree of polarization (%) 80° C., Dry, 1,000 hours [3, 9]: A+ (The amount of change of the degree of polarization before and after the elapse of time was less than 0.1%.)
- Durability of polarizer: amount of change of orthogonal transmittance (%) 60° C., 95%, 500 hours [3, 9]: A+ (The amount of change of the orthogonal transmittance before and after the elapse of time was less than 0.1%.)
- Durability of polarizer: amount of change of orthogonal transmittance (%) 60° C., 95%, 1,000 hours [3, 9]: A+ (The amount of change of the orthogonal transmittance before and after the elapse of time was less than 0.5%.)
- Durability of polarizer: amount of change of orthogonal transmittance (%) 80° C., Dry 500 hours [3, 9]: A+ (The amount of change of the orthogonal transmittance before and after the elapse of time was less than 0.05%.)
- Durability of polarizer: amount of change of orthogonal transmittance (%) 80° C., Dry, 1,000 hours [3, 9]: A+ (The amount of change of the orthogonal transmittance before and after the elapse of time was less than 0.1%.)
